{"sequences": {"note": "By UniProt entry, the sequences of proteins in these tests, tags left out.", "UniProt P27694": "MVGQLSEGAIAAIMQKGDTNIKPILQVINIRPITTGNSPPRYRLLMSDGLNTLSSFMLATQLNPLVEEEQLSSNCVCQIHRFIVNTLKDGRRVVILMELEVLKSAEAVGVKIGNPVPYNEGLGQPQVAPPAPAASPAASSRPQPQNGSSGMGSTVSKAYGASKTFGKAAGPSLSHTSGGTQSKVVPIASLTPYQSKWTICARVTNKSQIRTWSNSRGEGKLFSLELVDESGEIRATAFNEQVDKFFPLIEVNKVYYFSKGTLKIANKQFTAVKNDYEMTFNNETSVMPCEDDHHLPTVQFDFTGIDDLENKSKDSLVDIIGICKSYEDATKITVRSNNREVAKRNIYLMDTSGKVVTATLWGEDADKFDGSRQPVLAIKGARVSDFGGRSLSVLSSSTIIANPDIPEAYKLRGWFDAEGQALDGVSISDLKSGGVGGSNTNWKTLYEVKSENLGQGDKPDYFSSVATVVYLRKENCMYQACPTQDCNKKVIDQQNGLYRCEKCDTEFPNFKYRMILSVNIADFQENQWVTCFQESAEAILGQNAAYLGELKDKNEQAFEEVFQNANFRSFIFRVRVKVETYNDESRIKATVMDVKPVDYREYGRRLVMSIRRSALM", "UniProt P15927": "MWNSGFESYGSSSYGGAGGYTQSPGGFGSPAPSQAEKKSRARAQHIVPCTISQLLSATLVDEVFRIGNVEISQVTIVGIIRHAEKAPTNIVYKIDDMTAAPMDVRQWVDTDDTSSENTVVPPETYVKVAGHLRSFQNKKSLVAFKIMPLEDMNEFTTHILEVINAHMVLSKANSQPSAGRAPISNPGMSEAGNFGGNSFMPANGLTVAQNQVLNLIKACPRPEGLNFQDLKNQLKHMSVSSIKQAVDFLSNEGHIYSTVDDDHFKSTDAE"}, "source": "paper PMC7560020", "target": "T1, Enhancer of mRNA decapping protein 4 (human (in human cervical cancer cell lines HeLa or SiHa)) (UniProt Q6P2E9)", "T1 sequence": "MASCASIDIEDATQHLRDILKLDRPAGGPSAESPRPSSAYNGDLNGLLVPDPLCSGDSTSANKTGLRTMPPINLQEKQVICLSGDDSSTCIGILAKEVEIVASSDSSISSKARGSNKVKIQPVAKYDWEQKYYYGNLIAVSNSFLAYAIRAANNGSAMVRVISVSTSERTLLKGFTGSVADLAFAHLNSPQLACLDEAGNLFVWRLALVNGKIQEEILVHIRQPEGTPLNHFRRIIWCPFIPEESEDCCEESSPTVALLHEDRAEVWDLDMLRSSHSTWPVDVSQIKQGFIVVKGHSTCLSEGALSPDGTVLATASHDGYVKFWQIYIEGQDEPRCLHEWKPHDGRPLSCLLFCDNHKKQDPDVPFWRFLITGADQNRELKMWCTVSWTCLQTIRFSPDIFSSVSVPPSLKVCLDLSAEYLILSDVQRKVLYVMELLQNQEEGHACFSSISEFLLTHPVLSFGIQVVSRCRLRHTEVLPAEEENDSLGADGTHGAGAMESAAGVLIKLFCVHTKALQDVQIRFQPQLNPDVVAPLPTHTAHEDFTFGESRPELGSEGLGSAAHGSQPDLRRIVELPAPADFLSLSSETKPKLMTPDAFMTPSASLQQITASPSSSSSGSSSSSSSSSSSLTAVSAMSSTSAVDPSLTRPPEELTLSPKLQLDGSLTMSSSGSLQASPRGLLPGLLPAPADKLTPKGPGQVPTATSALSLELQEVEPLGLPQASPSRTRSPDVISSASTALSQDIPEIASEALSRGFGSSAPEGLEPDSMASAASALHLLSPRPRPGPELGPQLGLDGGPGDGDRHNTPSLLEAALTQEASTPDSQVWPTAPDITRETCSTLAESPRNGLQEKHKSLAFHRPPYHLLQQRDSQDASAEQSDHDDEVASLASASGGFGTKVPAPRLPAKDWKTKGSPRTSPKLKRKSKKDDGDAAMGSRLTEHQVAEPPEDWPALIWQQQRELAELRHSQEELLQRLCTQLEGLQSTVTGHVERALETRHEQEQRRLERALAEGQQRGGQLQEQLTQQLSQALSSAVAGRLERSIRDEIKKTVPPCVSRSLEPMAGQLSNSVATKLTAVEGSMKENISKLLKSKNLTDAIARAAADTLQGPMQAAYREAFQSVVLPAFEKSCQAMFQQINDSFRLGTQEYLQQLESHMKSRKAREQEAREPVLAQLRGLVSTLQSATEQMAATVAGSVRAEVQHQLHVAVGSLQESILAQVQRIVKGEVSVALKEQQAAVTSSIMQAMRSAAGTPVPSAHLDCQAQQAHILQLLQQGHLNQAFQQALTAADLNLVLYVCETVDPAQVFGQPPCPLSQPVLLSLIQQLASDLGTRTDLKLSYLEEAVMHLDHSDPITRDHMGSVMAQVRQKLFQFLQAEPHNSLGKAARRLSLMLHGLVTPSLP", "assay": "co-IP; cell lysate incubated with purified antibody against target protein overnight at 4 °C, Protein G-conjugated or IgG-conjugated magnetic beads 3 h, washed with IP buffer and PBS, eluate analysed by Western blot; which protein was precipitated not given", "note": "No constants are given. Whether binding was seen depends on the method and setting. In cells and extracts the contact can be indirect. Some entries that bind do so weakly or less than the wild type."}
{"substance": "Replication protein A subunit RPA1 (from UniProt P27694 1-616)", "values": [{"measurement": "binding", "result": "binds"}]}
{"substance": "Replication protein A subunit RPA2 (from UniProt P15927 1-270)", "values": [{"measurement": "binding", "result": "binds"}]}
